In publication PMC3197142:
No constants are given. Whether binding was seen depends on the method and setting. In cells and extracts the contact can be indirect. Some results given as binding are weak or reduced against the parent protein; the word gives no strength. Sequences can lack the tags named with a protein.

Target: T1, GST-Matrin-3 (human) (UniProt P43243)
T1 sequence: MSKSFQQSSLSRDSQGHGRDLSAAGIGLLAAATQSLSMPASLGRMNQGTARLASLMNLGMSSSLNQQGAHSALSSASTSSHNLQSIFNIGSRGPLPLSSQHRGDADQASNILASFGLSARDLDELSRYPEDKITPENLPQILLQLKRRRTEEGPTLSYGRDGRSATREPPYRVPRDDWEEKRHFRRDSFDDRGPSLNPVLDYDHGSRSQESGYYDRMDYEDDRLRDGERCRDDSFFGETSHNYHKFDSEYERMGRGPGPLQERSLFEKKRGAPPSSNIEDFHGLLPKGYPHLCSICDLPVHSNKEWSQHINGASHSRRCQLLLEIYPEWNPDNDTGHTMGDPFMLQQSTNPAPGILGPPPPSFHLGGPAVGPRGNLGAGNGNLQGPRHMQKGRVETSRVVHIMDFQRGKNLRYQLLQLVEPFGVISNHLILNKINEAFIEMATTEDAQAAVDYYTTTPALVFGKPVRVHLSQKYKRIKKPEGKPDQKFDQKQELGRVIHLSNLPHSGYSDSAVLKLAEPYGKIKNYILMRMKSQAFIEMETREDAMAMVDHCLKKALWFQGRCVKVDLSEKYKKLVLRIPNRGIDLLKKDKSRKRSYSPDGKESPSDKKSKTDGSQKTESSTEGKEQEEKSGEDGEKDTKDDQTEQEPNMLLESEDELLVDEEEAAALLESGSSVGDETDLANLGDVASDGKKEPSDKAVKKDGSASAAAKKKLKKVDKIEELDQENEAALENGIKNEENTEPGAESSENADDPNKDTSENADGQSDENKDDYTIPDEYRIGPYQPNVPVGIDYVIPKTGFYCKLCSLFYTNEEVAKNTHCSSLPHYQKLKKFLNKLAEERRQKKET
Experiment: pull-down; purified GST-Matrin-3 (50 ng) incubated with Ba/F3 nuclear extracts (10 µg) in Interaction Buffer (20 mM Tris pH 8.0, 137 mM NaCl, 1.5 mM MgCl2, 1 mM EGTA, 0.1% Triton X-100, 10% glycerol), 1.5 h at 4°C; captured on Glutathione Sepharose 4B; immunoblot with anti-p68 or anti-CTCF Ab; only the target purified

B1: CCCTC-binding factor (endogenous, Ba/F3 nuclear extract) (protein, UniProt Q61164 1-736)
chain: MEGEAVEAIVEESETFIKGKERKTYQRRREGGQEEDACHLPQNQTDGGEVVQDVNSSVQMVMMEQLDPTLLQMKTEVMEGTVAPEAEAAVDDTQIITLQVVNMEEQPINIGELQLVQVPVPVTVPVATTSVEELQGAYENEVSKEGLAESEPMICHTLPLPEGFQVVKVGANGEVETLEQGELPPQEDSSWQKDPDYQPPAKKTKKTKKSKLRYTEEGKDVDVSVYDFEEEQQEGLLSEVNAEKVVGNMKPPKPTKIKKKGVKKTFQCELCSYTCPRRSNLDRHMKSHTDERPHKCHLCGRAFRTVTLLRNHLNTHTGTRPHKCPDCDMAFVTSGELVRHRRYKHTHEKPFKCSMCDYASVEVSKLKRHIRSHTGERPFQCSLCSYASRDTYKLKRHMRTHSGEKPYECYICHARFTQSGTMKMHILQKHTENVAKFHCPHCDTVIARKSDLGVHLRKQHSYIEQGKKCRYCDAVFHERYALIQHQKSHKNEKRFKCDQCDYACRQERHMIMHKRTHTGEKPYACSHCDKTFRQKQLLDMHFKRYHDPNFVPAAFVCSKCGKTFTRRNTMARHADNCAGPDGVEGENGGETKKSKRGRKRKMRSKKEDSSDSEENAEPDLDDNEEEEEPAVEIEPEPEPQPQPPPPPQPVAPAPPPAKKRRGRPPGRTNQPKQNQPTAIIQVEDQNTGAIENIIVEVKKEPDAEPAEGEEEEAQAATTDAPNGDLTPEMILSMMDR
binding: binds
